These are yes or no findings as the source states them, for the method shown. Some results given as binding are weak or reduced against the parent protein; the word gives no strength. Sequences can lack the tags named with a protein.
Legend:
[1] = biological target: T1, human Loricrin (human) (UniProt P23490); experiment: automated immunohistochemistry (Ventana Benchmark XT), chimeric mouse IgG1 format
T1 sequence: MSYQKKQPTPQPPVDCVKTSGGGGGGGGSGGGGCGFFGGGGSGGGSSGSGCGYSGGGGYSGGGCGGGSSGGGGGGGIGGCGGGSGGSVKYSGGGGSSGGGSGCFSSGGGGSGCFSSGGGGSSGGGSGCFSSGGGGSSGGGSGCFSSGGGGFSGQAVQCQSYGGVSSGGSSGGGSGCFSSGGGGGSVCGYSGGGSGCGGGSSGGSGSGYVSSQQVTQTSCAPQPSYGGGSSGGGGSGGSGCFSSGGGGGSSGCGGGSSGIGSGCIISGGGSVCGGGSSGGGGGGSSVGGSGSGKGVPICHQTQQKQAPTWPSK

[2] = biological target: T1, human Loricrin (human); experiment: QC ELISA of the chimeric human/mouse IgG1 antibody on immobilized Loricrin; signal over background

- binding [1]: binds
- binding [2]: binds
B1: AbD33047 full length chimeric antibody against human Loricrin with an IgG1 mouse Fc region (antibody, V domains shown)
VH: QVQLVQSGAEVKKPGASVKVSCKASGYTFNDYYIHWVRQAPGQGLEWMGVISPNSGKTNYAQKFQGRVTMTRDTSISTAYMELSRLRSEDTAVYYCARDLYPDSSAFDIWGQGTLVTVSS
VL: DIELTQPPSVSVSPGQTASITCSGDNLGDKYAHWYQQKPGQAPVLVIYDDNERPSGIPERFSGSNSGNTATLTISGTQAEDEADYYCQSYDSGNRVFGGGTKLTVLG

Source: patent publication US20210396758A1
